Results are given in words; binding and its absence hold for the method and conditions named. In cells and extracts the contact can be indirect. Some results given as binding are weak or reduced against the parent protein; the word gives no strength. Tags and fused reporters may be left off the sequences shown.

By UniProt entry, the sequences of proteins in these tests, tags left out.
UniProt Q13263: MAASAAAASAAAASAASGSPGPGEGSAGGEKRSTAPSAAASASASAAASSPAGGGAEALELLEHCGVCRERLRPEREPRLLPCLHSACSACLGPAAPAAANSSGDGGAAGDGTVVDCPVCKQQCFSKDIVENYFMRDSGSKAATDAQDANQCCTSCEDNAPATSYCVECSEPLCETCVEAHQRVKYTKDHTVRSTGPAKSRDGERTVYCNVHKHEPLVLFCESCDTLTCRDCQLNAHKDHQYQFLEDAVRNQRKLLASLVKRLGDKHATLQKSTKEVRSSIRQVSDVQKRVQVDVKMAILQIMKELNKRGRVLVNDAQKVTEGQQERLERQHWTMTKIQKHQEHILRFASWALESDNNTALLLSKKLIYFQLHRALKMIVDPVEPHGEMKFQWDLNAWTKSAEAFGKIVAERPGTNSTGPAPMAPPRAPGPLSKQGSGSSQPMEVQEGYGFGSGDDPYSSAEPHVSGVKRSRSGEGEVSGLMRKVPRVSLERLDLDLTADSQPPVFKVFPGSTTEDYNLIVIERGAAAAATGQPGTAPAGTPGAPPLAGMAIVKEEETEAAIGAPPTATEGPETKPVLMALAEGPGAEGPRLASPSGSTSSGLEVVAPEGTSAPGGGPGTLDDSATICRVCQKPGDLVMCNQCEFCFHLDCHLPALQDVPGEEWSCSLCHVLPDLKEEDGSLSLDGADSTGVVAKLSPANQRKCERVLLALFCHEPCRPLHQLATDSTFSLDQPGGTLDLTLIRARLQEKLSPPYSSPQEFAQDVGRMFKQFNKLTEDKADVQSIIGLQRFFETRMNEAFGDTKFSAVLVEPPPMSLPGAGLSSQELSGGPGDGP

We go through one substance from paper doi:10.1101/042119.

The target of the experiment is T1, EGFP-Wip1 (UniProt O15297).
T1 sequence: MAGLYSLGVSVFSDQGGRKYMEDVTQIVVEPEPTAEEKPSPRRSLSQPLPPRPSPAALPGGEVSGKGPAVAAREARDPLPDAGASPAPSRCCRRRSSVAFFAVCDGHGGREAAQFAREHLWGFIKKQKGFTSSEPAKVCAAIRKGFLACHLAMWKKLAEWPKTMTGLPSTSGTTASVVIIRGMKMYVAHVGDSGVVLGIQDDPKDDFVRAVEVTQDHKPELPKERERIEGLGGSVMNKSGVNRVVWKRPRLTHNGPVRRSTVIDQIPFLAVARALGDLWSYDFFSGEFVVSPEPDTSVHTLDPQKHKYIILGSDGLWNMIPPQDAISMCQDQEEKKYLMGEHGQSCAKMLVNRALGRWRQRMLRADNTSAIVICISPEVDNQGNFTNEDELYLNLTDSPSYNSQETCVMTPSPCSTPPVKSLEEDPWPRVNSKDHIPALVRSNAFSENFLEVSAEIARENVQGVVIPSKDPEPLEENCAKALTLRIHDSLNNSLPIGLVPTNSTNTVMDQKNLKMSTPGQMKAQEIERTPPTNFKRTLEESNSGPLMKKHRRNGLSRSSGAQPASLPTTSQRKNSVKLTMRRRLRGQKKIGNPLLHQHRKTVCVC
Nature of the experiment: co-IP.

Regarding “Endogenous KAP1 (from UniProt Q13263 1-835)”, the binding result is recorded as “binds”.
